Assay [1] has as its target T1, FLAG-Myc-tagged murine IRF7 K3R mutant (K398R, K400R, K406R) (murine) (UniProt P70434).
T1 sequence: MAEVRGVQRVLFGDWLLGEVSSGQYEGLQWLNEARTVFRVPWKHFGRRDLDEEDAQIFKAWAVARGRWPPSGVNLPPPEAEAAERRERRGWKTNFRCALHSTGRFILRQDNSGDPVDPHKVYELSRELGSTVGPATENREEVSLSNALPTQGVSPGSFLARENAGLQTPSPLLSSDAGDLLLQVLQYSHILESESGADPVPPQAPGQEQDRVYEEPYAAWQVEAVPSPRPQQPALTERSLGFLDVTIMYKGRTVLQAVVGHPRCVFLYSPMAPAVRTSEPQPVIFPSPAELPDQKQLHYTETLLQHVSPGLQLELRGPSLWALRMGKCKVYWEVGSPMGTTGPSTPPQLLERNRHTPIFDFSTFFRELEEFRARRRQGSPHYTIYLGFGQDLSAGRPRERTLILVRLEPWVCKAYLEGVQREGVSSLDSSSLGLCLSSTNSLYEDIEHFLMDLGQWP
Put plainly: co-IP; HEK-293T transfected with expression vectors for 24 h, then infected with SeV for 6 h or left untreated; IP lysis buffer (10mM Tris-HCl, pH 7.5, 2mM EDTA, 1% NP40, 150mM NaCl); immunoblot.

The chains behind the UniProt entries cited, without tags or fusion partners.
UniProt Q13568: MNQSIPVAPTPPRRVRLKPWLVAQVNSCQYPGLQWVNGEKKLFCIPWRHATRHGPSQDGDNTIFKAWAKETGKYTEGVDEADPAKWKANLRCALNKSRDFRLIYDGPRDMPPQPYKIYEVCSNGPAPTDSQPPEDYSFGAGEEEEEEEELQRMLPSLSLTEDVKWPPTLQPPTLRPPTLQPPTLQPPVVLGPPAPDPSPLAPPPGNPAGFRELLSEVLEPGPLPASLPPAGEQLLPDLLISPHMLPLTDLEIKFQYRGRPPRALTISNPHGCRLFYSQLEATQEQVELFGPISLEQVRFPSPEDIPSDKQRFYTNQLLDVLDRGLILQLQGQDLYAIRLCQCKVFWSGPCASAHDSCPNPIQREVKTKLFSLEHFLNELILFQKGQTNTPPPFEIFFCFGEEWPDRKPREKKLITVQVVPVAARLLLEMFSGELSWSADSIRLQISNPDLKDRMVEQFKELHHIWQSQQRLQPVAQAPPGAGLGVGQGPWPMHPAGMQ
UniProt P45481: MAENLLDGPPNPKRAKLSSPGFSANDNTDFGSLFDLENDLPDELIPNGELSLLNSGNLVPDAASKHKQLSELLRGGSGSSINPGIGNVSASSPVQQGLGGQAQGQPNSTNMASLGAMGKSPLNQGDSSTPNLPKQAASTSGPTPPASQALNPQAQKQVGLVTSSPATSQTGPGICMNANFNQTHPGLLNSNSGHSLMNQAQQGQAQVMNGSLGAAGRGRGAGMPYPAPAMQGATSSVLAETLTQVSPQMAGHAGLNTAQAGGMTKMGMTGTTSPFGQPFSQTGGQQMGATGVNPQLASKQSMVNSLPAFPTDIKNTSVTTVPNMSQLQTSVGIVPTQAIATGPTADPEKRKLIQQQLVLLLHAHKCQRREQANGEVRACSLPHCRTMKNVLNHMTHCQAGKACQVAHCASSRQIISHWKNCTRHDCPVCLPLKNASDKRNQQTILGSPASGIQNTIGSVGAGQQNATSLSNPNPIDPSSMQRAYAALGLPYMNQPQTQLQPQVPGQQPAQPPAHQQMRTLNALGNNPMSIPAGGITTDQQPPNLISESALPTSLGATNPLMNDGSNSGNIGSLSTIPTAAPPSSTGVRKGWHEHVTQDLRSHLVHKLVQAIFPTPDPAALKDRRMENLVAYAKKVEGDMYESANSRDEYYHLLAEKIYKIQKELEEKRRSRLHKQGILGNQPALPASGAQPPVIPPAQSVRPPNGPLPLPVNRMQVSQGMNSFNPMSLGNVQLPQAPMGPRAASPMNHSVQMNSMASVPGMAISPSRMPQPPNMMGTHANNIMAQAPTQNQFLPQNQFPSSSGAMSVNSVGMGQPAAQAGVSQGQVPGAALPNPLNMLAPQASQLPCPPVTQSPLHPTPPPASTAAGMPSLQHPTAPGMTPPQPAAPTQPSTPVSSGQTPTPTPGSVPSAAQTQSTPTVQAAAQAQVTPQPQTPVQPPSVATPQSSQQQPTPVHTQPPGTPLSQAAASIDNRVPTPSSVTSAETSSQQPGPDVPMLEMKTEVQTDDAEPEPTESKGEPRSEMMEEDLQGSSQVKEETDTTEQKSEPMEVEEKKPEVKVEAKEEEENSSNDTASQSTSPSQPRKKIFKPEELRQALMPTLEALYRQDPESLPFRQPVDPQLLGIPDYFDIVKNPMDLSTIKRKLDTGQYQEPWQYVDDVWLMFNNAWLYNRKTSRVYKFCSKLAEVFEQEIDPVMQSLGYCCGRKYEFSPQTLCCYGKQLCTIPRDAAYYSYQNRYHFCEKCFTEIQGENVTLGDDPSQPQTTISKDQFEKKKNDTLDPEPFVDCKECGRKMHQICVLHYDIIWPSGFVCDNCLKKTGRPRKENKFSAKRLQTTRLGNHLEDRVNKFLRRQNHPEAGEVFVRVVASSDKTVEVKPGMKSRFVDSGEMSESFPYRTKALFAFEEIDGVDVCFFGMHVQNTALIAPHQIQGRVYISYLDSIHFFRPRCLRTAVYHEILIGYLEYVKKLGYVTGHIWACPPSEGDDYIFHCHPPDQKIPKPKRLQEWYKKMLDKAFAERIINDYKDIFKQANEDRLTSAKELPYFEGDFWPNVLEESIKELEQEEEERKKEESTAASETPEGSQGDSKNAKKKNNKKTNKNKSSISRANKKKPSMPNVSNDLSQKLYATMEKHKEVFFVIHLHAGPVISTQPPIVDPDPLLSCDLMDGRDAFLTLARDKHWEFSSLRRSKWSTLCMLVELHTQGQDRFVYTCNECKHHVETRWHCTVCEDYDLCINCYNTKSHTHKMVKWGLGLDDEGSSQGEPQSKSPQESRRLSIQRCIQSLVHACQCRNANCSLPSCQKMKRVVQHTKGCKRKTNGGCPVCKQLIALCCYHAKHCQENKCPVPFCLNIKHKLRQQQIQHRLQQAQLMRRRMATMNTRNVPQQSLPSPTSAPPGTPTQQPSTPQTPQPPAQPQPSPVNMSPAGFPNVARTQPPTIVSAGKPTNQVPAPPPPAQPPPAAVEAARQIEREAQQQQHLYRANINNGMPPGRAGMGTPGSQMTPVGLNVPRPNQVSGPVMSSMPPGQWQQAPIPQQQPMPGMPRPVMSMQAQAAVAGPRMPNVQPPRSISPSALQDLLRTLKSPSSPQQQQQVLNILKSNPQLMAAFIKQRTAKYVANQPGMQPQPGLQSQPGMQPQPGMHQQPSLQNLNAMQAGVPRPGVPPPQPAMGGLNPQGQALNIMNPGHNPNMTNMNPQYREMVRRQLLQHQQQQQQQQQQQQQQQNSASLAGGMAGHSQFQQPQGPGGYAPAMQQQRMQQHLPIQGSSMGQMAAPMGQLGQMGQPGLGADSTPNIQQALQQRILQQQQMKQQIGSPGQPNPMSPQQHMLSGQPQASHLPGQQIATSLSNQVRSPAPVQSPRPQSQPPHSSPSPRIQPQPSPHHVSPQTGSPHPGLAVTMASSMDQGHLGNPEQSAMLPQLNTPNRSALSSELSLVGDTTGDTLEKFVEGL

Assay [2] deals with T2, FLAG-Myc-tagged murine IRF7 WT (murine) (UniProt P70434).
T2 sequence: T1 sequence with R398K, R400K, R406K
The description is as above.

Here are results for two substances from article PMC8432861.

Positions count from the first letter of the chain named. No constants are given. Whether binding was seen depends on the method and setting. In cells and extracts the contact can be indirect. Some entries that bind do so weakly or less than the wild type. Tags and fused reporters may be left off the sequences shown.

Consider “FLAG-tagged human IRF5 (from UniProt Q13568 1-498)”, for which the binding entry in assay [1] and in assay [2] was “binds” in each case.
Regarding “FLAG-tagged murine CBP (from UniProt P45481 1-2441)”, the binding result in assay [1] and in assay [2] was “binds” throughout.
